± gives the standard deviation of the averaged measurements. The list shows a part of the results.

The target in the assay is T1, A0A087WUA5|Q9H223 (UniProt Q9H223).
T1 sequence (whole entry): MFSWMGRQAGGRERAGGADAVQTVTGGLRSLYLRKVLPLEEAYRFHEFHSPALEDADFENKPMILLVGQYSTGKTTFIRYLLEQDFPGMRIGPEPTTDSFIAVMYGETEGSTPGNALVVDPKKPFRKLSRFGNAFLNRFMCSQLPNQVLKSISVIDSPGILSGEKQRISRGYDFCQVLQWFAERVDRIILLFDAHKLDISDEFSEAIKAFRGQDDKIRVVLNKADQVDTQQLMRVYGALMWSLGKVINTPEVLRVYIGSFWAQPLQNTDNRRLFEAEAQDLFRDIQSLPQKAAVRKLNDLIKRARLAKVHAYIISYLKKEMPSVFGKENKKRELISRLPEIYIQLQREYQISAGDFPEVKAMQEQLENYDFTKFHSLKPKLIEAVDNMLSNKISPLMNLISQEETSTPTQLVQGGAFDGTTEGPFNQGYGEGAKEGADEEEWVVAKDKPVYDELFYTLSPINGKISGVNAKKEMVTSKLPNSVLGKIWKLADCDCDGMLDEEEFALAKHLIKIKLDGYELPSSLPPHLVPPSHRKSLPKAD
Put plainly: NP40-soluble protein abundance relative to vehicle (solubility fold change) (ratio); higher = more soluble protein in presence of GTP. The procedure, abridged:
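Eight concentrations, 0.1 to 10 mM, were tested on Jurkat crude lysate for 10 min at room temperature and then 3 min at 37 °C, in three independent experiments. The lysate was solubilised with 0.8% NP40 and benzonase, ultracentrifuged, and the supernatant TMT-labelled for LC-MS/MS. Each value is the fold change against the detergent-processed vehicle in its own replicate, from vsn-normalised intensities.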

With `Nc1nc2c(ncn2[C@@H]2O[C@H](COP(=O)(O)OP(=O)(O)OP(=O)(O)O)[C@@H](O)[C@H]2O)c(=O)[nH]1` [guanosine triphosphate], the NP40-soluble protein abundance is, setting by setting: (concentration: 0.1mM) 0.985 ± 0.034; (concentration: 0.5mM) 0.959 ± 0.04; (concentration: 1mM) 0.957 ± 0.026; (concentration: 2mM) 0.937 ± 0.03; (concentration: 4mM) 0.947 ± 0.045; (concentration: 6mM) 0.938 ± 0.024. Also, the NP40-soluble protein abundance was 0.938 ± 0.064 (concentration: 8mM) and 0.926 ± 0.065 (concentration: 10mM).

The values are drawn from the supplement of paper PMC6411743.
